We go through two substances from paper PMC12712952.

The chains behind the UniProt entries cited, without tags or fusion partners. Where a name states a change or a piece, a line headed by the entry shows the natural chain unless it says otherwise.
UniProt Q9R1E0: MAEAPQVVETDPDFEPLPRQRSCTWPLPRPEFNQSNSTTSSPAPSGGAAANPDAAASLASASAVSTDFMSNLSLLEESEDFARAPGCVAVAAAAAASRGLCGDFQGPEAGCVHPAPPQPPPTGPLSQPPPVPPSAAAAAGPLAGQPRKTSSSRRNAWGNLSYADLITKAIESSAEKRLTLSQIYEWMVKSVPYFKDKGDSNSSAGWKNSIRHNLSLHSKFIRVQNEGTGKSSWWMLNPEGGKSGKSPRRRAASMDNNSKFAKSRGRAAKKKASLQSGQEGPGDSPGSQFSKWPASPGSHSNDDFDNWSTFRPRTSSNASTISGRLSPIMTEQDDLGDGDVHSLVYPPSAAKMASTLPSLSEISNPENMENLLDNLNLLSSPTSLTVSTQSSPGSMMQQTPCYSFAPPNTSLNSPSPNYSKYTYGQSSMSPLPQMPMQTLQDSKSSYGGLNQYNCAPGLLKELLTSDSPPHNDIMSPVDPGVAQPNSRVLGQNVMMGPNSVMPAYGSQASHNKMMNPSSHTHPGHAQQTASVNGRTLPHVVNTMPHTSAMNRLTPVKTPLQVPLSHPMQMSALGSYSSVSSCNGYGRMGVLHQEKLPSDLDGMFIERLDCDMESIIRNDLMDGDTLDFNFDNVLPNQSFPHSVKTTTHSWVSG
UniProt Q61985: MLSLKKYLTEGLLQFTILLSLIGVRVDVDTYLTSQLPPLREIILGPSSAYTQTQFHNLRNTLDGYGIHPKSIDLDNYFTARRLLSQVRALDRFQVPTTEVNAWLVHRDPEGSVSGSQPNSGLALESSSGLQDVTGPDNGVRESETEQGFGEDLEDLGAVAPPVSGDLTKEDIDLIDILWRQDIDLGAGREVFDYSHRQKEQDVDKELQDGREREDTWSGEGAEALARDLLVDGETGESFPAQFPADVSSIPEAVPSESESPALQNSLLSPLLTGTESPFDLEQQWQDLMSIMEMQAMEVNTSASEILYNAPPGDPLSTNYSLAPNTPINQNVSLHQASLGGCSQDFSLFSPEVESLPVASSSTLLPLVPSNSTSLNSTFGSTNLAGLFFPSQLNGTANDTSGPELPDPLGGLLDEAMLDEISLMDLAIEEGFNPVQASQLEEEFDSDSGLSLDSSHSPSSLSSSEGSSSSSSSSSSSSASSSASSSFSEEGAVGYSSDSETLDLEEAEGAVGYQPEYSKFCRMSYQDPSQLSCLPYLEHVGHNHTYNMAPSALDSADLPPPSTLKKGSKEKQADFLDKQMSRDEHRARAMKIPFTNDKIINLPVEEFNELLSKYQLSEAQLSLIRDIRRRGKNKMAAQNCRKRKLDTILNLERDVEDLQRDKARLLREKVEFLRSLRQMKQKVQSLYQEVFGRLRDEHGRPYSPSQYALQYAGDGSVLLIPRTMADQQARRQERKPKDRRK

These are yes or no findings as the source states them, for the method shown. Binding seen in cells or lysates may run through a third protein. Some entries that bind do so weakly or less than the wild type.

The target of assay [1] is Foxo1 protein of the GST pull-down assay (UniProt Q9R1E0). The experiment in a line: pull-down; GST pull-down between Nrf1 and Foxo1 proteins; which one carried GST is not told.
The target of assay [2] is Forkhead box protein o1 (Foxo1), endogenous in mouse bone marrow-derived macrophages (mouse (endogenous in BMMs)) (UniProt Q9R1E0). The experiment in a line: co-IP; immunoprecipitation from LPS-stimulated macrophages (BMMs) of WT mice; endogenous proteins.
Assay [3] shares this target. Description: FRET or BRET; immunofluorescence staining and FRET analysis of Nrf1 and Foxo1 in macrophages stimulated with LPS; signal in the nucleus.

Take “Nrf1 protein of the GST pull-down assay (from UniProt Q61985 104-741)”: the binding entry in assay [1] is “binds”.

Take “Nuclear factor erythroid 2-like 1 (Nrf1/NFE2L1), endogenous in mouse bone marrow-derived macrophages (from UniProt Q61985 1-741)”: the binding entry in assay [2] and in assay [3] was “binds” each time.
